From PMC6868820
Results are given in words; binding and its absence hold for the method and conditions named. In cells and extracts the contact can be indirect. Some binding calls cover weakened binding; strength is not graded here.

Protein sequences, listed by entry. Tags and fused reporters are not part of them.
UniProt Q9NYV6: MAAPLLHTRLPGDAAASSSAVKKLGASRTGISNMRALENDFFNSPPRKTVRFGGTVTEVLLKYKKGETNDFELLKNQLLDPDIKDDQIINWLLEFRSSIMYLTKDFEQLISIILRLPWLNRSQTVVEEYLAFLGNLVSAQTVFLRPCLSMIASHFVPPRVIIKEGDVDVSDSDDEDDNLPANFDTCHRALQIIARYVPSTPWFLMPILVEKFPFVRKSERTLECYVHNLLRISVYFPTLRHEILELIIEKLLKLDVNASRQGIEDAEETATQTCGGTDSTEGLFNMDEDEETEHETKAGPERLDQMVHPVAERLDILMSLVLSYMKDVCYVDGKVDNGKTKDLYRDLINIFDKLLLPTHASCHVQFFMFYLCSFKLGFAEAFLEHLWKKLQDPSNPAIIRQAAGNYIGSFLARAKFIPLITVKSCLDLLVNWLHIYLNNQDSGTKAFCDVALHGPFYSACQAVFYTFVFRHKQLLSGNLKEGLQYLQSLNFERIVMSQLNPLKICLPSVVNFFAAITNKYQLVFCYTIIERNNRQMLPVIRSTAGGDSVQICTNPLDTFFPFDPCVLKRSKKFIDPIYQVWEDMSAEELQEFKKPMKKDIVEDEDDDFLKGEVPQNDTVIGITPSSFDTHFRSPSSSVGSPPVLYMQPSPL

Target: TIFIA (human) (UniProt Q9NYV6)
Assay: co-IP; co-IP followed by western blot, in GBC cells; bait and conditions not described

binding: binds
B1: PA2G4 (protein, UniProt Q9UQ80 1-394)
chain: MSGEDEQQEQTIAEDLVVTKYKMGGDIANRVLRSLVEASSSGVSVLSLCEKGDAMIMEETGKIFKKEKEMKKGIAFPTSISVNNCVCHFSPLKSDQDYILKEGDLVKIDLGVHVDGFIANVAHTFVVDVAQGTQVTGRKADVIKAAHLCAEAALRLVKPGNQNTQVTEAWNKVAHSFNCTPIEGMLSHQLKQHVIDGEKTIIQNPTDQQKKDHEKAEFEVHEVYAVDVLVSSGEGKAKDAGQRTTIYKRDPSKQYGLKMKTSRAFFSEVERRFDAMPFTLRAFEDEKKARMGVVECAKHELLQPFNVLYEKEGEFVAQFKFTVLLMPNGPMRITSGPFEPDLYKSEMEVQDAELKALLQSSASRKTQKKKKKKASKTAENATSGETLEENEAGD
